Measurements taken from patent publication US20180207264A1, “PORCINE IMMUNE MODULATION MODEL” (Government of the United States as Represented by the …, priority 2017, published 2018).
For at least one compound, name, drawing or mass did not settle the structure.

Columns and labels:
[1] = system: MCF-7 breast cancer cells; assay: Cell death and cell growth in hormone dependent ER/PR positive breast cancer cell cultures; type: cell-based; details: grown for 5 days; 25 μM androstene hormone, 5 nM E2; PEG 300 with 5% LIPOFECTAMINE
Description: Hormone dependent, noninvasive, epithelial phenotype (ER/PR positive MCF-7 breast cancer cells) and hormone independent, invasive, mesenchymal phenotype (ER/PR negative MDA-MB-231 breast cancer cell) cell suspensions were acquired and prepared in complete medium (DMEM/F12, 10% FBS, 1% penicillin/streptomycin (Gibco)). Cellular concentration was adjusted to 2×10^5 cells/mL.
Androstene hormone solutions according to embodiments of the present invention were prepared from a first solution and a second solution. For the first solution, 3.0 mg of β-AED or 3-AET was added to warm PEG 300 to prepare 50 mM stock. For the second solution, 10 μL of LIPOFECTAMINE (3:1 DOSPA:DOPE) was introduced to 100 μL of PEG 300, mixed, and incubated in a water bath at 42° C. for 30 min. The first and second solutions were then mixed in a sonicator water bath at 42° C. for 1 hr. The final concentration was 50 mM β-AED (or AET, as used).
A β-estradiol solution was also prepared by adding 2.7 mg of β-estradiol to 200 μL warmed PEG 300 with LIPOFECTAMINE and then further diluted 1:1000 with PEG-300. The final concentration was 50 μM.
A diluted β-AED (or 3-AET) solution was prepared with complete medium at a final concentration of 50 μM (1:1000 dilute of 50 mM). Likewise, a diluted β-E2 solution was prepared with complete medium at a final concentration of 10 nM (1:5000 dilute of 50 μM). […]

293T cells = assay: Biological function (phenotype, mobile cells) of androstene hormone treatments in 293T cells; type: cell-based, human; details: androstene hormone 25 μM
Description: A non-toxic vehicle for administration of androstene hormones according to embodiments of the present invention was prepared from a first solution and a second solution. The first solution, comprising liposomal formulation, was placed in PEG 300 to a concentration of 5% and heated in a sonicating water bath to about 45° C. The second solution, comprising a selected hormone (one or more of 5Δ-androsten-3β, 17α-diol, 5Δ-androsten-3β, 17β-diol, or 5Δ-androsten-3β,7β,17β-triol), was placed in PEG 300 and heated in a sonicating water bath to about 45° C. The first and second solutions were then combine and stirred until dissolved.
Biological function was tested in 293T cells, which is a human embryonic cell line transformed with Large T antigen […] SV40. This hypotriploid (polyploid) cell line is particularly useful in such transformation studies and has very distinct phenotypes when grown. All androstene hormone treatment applications were at concentrations of 25 μM.

Q: Which results are given for `C[C@]12CC[C@@H]3c4ccc(O)cc4CC[C@H]3[C@@H]1CC[C@@H]2O` [E2, estradiol, reference compound]?
A: Cell growth / cell density of MCF-7 cells compared with vehicle (FIG. 14) [1]: thick and similar to the cell growth of FIGS. 14 and 16; Phenotype of 293T cells (cell islands, mobile cells, cell processes) (293T cells; vehicle PEG 300): many more cell processes; Phenotype of 293T cells (cell islands, mobile cells, cell processes) (293T cells; vehicle PEG 300 and LIPOFECTAMINE): many large islands with mobile processes, small islands with mobile process, and mobile cells forming interconnections with other elements
